Consider 1 molecule from US20240238445A1, “INHIBITORS AND USES THEREOF” (NEURACLE SCIENCE CO., LTD., priority 2021, published 2024).

By UniProt entry, the sequences of proteins in these tests, tags left out. Where a name states a change or a piece, a line headed by the entry shows the natural chain unless it says otherwise.
UniProt Q7Z5A7: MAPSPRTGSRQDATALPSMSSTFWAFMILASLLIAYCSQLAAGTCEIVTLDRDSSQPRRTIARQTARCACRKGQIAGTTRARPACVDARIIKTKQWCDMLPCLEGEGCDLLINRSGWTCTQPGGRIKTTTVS

This experiment concerns the target FAM19A5 protein isoform 1 (human) (UniProt Q7Z5A7). The experiment is described as follows: co-IP and immunofluorescence, co-transfected HEK293 cells.

Results are given in words; binding and its absence hold for the method and conditions named. In cells and extracts the contact can be indirect. Some binding calls cover weakened binding; strength is not graded here. Sequences can lack the tags named with a protein.

B1: FLAG-tagged LRRC4B protein (receptor)
chain: AGGGGVAVTSAAGGGSPPATSCPVACSCSNQASRVICTRRDLAEVPASIPVNTRYLNLQENGIQVIRTDTFKHLRHLEILQLSKNLVRKIEVGAFNGLPSLNTLELFDNRLTTVPTQAFEYLSKLRELWLRNNPIESIPSYAFNRVPSLRRLDLGELKRLEYISEAAFEGLVNLRYLNLGMCNLKDIPNLTALVRLEELELSGNRLDLIRPGSFQGLTSLRKLWLMHAQVATIERNAFDDLKSLEELNLSHNNLMSLPHDLFTPLHRLERVHLNHNPWHCNCDVLWLSWWLKETVPSNTTCCARCHAPAGLKGRYIGELDQSHFTCYAPVIVEPPTDLNVTEGMAAELKCRTGTSMTSVNWLTPNGTLMTHGSYRVRISVLHDGTLNFTNVTVQDTGQYTCMVTNSAGNTTASATLNVSAVDPVAAGGTGSGGGGPGGSGGVGGGSGGYTYFTTVTVETLETQPGEEALQPRGTEKEPPGPTTDGVWGGGRPGDAAGPASSSTTAPAPRSSRPTEKAFTVPITDVTENALKDLDDVMKTTKIIIGCFVAITFMAAVMLVAFYKLRKQHQLHKHHGPTRTVEIINVEDELPAASAVSVAAAAAVASGGGVGGDSHLALPALERDHLNHHHYVAAAFKAHYSSNPSGGGCGGKGPPGLNSIHEPLLFKSGSKENVQETQI
Turning to B1, the binding entry is listed as “binds”.
